{"source": "PubChem BioAssay AID1508588 | Peter MacCallum Cancer Centre | 2020", "screen": "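Genome-wide search for knock-downs that heighten vemurafenib action in melanoma cells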 (primary screen)", "cells": "human WM266.4 melanoma cells (BRAF V600 mutant)", "knock-down reagent": "siRNA pool against human genes, 40 nM", "timing": "96 h from transfection to read-out", "treatment": "vemurafenib 300 nM (about IC25), added 48 h after transfection, for 48 h; comparison arm got DMSO vehicle only", "measured": "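Cell gain (DAPI nuclei at end minus before drug, mean of two replicates) and medium lactate by absorbance per cell, both as ratio to non-targeting siRNA, also grouped into fold-change classes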", "scale": "cell gain with vemurafenib: higher = more cell gain than with non-targeting siRNA; lactate per cell with vemurafenib: higher = more lactate made per cell", "active means": "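Enhancement is called by pairing each knock-down's vehicle-arm and drug-arm fold-change classes for viability or glycolysis; which class combinations qualify is not given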", "meaning of the calls": "active = enhances vemurafenib effect; inactive = no enhancement seen", "note": "The deposit covers about 18,000 reagents; this is a random part of them. Over the whole deposit, 790 (4.4%) were called active. 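Calls rest on a combination of fold-change classes in drug and vehicle arms, not all shown here.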 Unmarked entries are inactive. Reagent sequences are not shown."}
The first 5 entries as a preview:
{"gene": "SELENON (selenoprotein N)", "cell gain with vemurafenib": 0.36, "lactate per cell with vemurafenib": 0.98}
{"gene": "P2RY14 (purinergic receptor P2Y14)", "cell gain with vemurafenib": 0.77, "lactate per cell with vemurafenib": 0.97}
{"gene": "MT1M (metallothionein 1M)", "cell gain with vemurafenib": 0.15, "lactate per cell with vemurafenib": 1.35}
{"gene": "IFI16 (interferon gamma inducible protein 16)", "cell gain with vemurafenib": 0.57, "lactate per cell with vemurafenib": 0.98}
{"gene": "MYPN (myopalladin)", "cell gain with vemurafenib": 0.28, "lactate per cell with vemurafenib": 1}

Main list, repeating the preview:
{"gene": "SELENON (selenoprotein N)", "cell gain with vemurafenib": 0.36, "lactate per cell with vemurafenib": 0.98}
{"gene": "P2RY14 (purinergic receptor P2Y14)", "cell gain with vemurafenib": 0.77, "lactate per cell with vemurafenib": 0.97}
{"gene": "MT1M (metallothionein 1M)", "cell gain with vemurafenib": 0.15, "lactate per cell with vemurafenib": 1.35}
{"gene": "IFI16 (interferon gamma inducible protein 16)", "cell gain with vemurafenib": 0.57, "lactate per cell with vemurafenib": 0.98}
{"gene": "MYPN (myopalladin)", "cell gain with vemurafenib": 0.28, "lactate per cell with vemurafenib": 1}
{"gene": "PTPRC (protein tyrosine phosphatase receptor type C)", "cell gain with vemurafenib": 0.88, "lactate per cell with vemurafenib": 0.8}
{"gene": "KLRF1 (killer cell lectin like receptor F1)", "cell gain with vemurafenib": 0.53, "lactate per cell with vemurafenib": 1.07}
{"gene": "RAB6D (RAB6D, member RAS oncogene family)", "cell gain with vemurafenib": 0.96, "lactate per cell with vemurafenib": 0.59}
{"gene": "C10orf90 (chromosome 10 open reading frame 90)", "cell gain with vemurafenib": 0.63, "lactate per cell with vemurafenib": 0.68}
{"gene": "NDRG2 (NDRG family member 2)", "cell gain with vemurafenib": 0.68, "lactate per cell with vemurafenib": 0.56}
{"gene": "FAIM2 (Fas apoptotic inhibitory molecule 2)", "cell gain with vemurafenib": 1.08, "lactate per cell with vemurafenib": 0.83}
{"gene": "IRS4 (insulin receptor substrate 4)", "cell gain with vemurafenib": 0.84, "lactate per cell with vemurafenib": 0.82}
{"gene": "CDH24 (cadherin 24)", "cell gain with vemurafenib": 0.16, "lactate per cell with vemurafenib": 1.8}
{"gene": "LYPD5 (LY6/PLAUR domain containing 5)", "cell gain with vemurafenib": 0.49, "lactate per cell with vemurafenib": 2.36}
{"gene": "DENND5A (DENN domain containing 5A)", "cell gain with vemurafenib": 0.51, "lactate per cell with vemurafenib": 1.21}
{"gene": "B3GLCT (beta 3-glucosyltransferase)", "cell gain with vemurafenib": 0.4, "lactate per cell with vemurafenib": 0.45}
{"gene": "CNOT12 (CCR4-NOT transcription complex subunit 12)", "cell gain with vemurafenib": 0.37, "lactate per cell with vemurafenib": 1.38}
{"gene": "CAND2 (cullin associated and neddylation dissociated 2 (putative))", "cell gain with vemurafenib": 0.56, "lactate per cell with vemurafenib": 1.18}
{"gene": "ZNF2 (zinc finger protein 2)", "cell gain with vemurafenib": 0.95, "lactate per cell with vemurafenib": 1.12}
{"gene": "OR13D1 (olfactory receptor family 13 subfamily D member 1)", "cell gain with vemurafenib": 1, "lactate per cell with vemurafenib": 0.48}
{"gene": "CH25H (cholesterol 25-hydroxylase)", "cell gain with vemurafenib": 0.65, "lactate per cell with vemurafenib": 1.46}
{"gene": "WASL (WASP like actin nucleation promoting factor)", "cell gain with vemurafenib": 0.78, "lactate per cell with vemurafenib": 0.67}
{"gene": "FCRLA (Fc receptor like A)", "cell gain with vemurafenib": 0.54, "lactate per cell with vemurafenib": 1.46}
{"gene": "OR1L8 (olfactory receptor family 1 subfamily L member 8)", "cell gain with vemurafenib": 0.68, "lactate per cell with vemurafenib": 0.84}
{"gene": "BPTF (bromodomain PHD finger transcription factor)", "cell gain with vemurafenib": 0.8, "lactate per cell with vemurafenib": 0.38}
{"gene": "DYDC2 (DPY30 domain containing 2)", "cell gain with vemurafenib": 0.48, "lactate per cell with vemurafenib": 0.84}
{"gene": "TLE6 (TLE family member 6, subcortical maternal complex member)", "cell gain with vemurafenib": 0.19, "lactate per cell with vemurafenib": 1.17}
{"gene": "MRPS16 (mitochondrial ribosomal protein S16)", "cell gain with vemurafenib": 0.88, "lactate per cell with vemurafenib": 1.64}
{"gene": "NACC1 (nucleus accumbens associated 1)", "cell gain with vemurafenib": 0.47, "lactate per cell with vemurafenib": 0.9}
{"gene": "LATS1 (large tumor suppressor kinase 1)", "cell gain with vemurafenib": 0.38, "lactate per cell with vemurafenib": 0.77}
{"gene": "POC1B (POC1 centriolar protein B)", "cell gain with vemurafenib": 0.33, "lactate per cell with vemurafenib": 1.25}
{"gene": "SELENBP1 (selenium binding protein 1)", "cell gain with vemurafenib": "1.05 (active)", "lactate per cell with vemurafenib": 0.19}
{"gene": "RASA2 (RAS p21 protein activator 2)", "cell gain with vemurafenib": 0.91, "lactate per cell with vemurafenib": 0.86}
{"gene": "RBPJL", "cell gain with vemurafenib": 0.67, "lactate per cell with vemurafenib": 0.84}
{"gene": "SYNJ2BP (synaptojanin 2 binding protein)", "cell gain with vemurafenib": 0.61, "lactate per cell with vemurafenib": 0.58}
{"gene": "AKAP8L (A-kinase anchoring protein 8 like)", "cell gain with vemurafenib": 0.16, "lactate per cell with vemurafenib": 1.08}
{"gene": "HPF1 (histone PARylation factor 1)", "cell gain with vemurafenib": 0.81, "lactate per cell with vemurafenib": 1.1}
{"gene": "GPR37L1 (G protein-coupled receptor 37 like 1)", "cell gain with vemurafenib": 0.44, "lactate per cell with vemurafenib": 0.72}
{"gene": "OTUD4 (OTU deubiquitinase 4)", "cell gain with vemurafenib": 0.79, "lactate per cell with vemurafenib": 0.92}
{"gene": "NOS1 (nitric oxide synthase 1)", "cell gain with vemurafenib": 1.4, "lactate per cell with vemurafenib": 0.67}
